# Assay results reported in patent US20060069049A1, “Methods and reagents related to foxo” (President and Fellows of Harvard College, priority 2003, published 2006).
# Protein sequences, listed by entry. Tags and fused reporters are not part of them. Lines headed by an entry give the natural chain unless they say otherwise; changes in a name come on top.
# UniProt Q12778: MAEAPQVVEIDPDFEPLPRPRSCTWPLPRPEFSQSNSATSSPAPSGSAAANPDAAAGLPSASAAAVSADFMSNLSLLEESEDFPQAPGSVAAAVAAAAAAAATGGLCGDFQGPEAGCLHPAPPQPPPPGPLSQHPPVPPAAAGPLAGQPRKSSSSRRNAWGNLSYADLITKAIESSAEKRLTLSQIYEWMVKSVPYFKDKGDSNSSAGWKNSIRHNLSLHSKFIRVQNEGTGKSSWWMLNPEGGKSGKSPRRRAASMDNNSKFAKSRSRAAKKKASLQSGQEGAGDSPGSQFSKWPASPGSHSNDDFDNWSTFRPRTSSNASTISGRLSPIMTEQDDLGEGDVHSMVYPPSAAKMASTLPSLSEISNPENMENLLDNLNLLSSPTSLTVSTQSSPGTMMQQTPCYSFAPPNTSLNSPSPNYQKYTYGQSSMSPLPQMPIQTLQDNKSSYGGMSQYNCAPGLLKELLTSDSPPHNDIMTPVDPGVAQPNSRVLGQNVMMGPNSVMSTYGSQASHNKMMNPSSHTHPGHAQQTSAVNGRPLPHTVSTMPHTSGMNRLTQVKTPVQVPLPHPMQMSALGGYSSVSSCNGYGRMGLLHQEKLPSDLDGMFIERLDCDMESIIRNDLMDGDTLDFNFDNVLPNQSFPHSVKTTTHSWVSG
# Biological target: FoxO1 (FKHR)-GST fusion (UniProt Q12778)
# Assay: competition with a labelled probe
# Details: 100-fold excess did not prevent FoxoGST-IGFBP1 complex; purified recombinant protein; protein details: GST fusion, Upstate
sequence,measurement,value
ATTCGATCGGGGCGGGGCGAG / CTCGCCCCGCCCCGATCGTAA [SP1 site oligonucleotide],binding result,no binding

# For at least one entry, the source does not settle the construct or the ends of the probe. No signal at the amounts used counts as a negative.
